The values below come from PMC6152987.

Protein sequences, listed by entry. Tags and fused reporters are not part of them.
UniProt P08515, whole entry: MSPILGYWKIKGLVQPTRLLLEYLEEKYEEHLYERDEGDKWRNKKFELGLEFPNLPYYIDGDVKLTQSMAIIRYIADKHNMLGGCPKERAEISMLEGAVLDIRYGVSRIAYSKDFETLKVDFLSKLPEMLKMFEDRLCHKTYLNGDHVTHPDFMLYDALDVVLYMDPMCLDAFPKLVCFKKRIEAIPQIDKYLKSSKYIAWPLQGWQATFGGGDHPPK

Construct, isoform or probe ends are uncertain for at least one entry. For part of these data: Negatives hold for the conditions tested.

The target in one data set is GST (UniProt P08515). Kind of data set: EMSA. The settings on record: poly(dI-dC); 20 mM HEPES pH 7.9, 1 mM EDTA, 2 mM MgCl2, 10% glycerol, 20 uM ZnCl2, 0.1 ug poly(dI-dC), 3 ug protein in 20 uL, 30 min on ice; 4% native PAGE, 0.5x TBE, 4 C; recombinant protein; label: 32P (5' by T4 PNK).
In data set [1] the test system is GST-CBF-1 (Neurospora crassa). Kind of data set: EMSA. Conditions: poly(dI-dC); 20 mM HEPES pH 7.9, 1 mM EDTA, 2 mM MgCl2, 10% glycerol, 20 uM ZnCl2, 0.1 ug poly(dI-dC), 3 ug protein in 20 uL, 30 min on ice; 4% native PAGE, 0.5x TBE, 4 C; recombinant protein; protein details: GST (N-terminal, pGEX-4T-1); label: 32P (5' by T4 PNK). Background: Mobility shift assays separate free from complexed probe on a gel.

Data set [2] has as its system GST-CBF-1 (Neurospora crassa). Kind of data set: competition with a labelled probe. Conditions: unlabeled competitor vs labeled C-box, lower protein concentration; 20 mM HEPES pH 7.9, 1 mM EDTA, 2 mM MgCl2, 10% glycerol, 20 uM ZnCl2, 0.1 ug poly(dI-dC), 3 ug protein in 20 uL, 30 min on ice; 4% native PAGE, 0.5x TBE, 4 C; recombinant protein; protein details: GST (N-terminal, pGEX-4T-1).

Regarding “CGTCCTGATGCCGCTGCAAGACCGATGACGCTGCAAAATTGAGATCTA (double strand) [frq C-box probe (ACF57/ACF58)]”, the binding result was “no binding” with GST and “binds” in data set [1].
As for “CGTCCTGATGCCGCTGCAAGACCGATGACGCTGCAAAATTGAGATCTA (double strand) [unlabeled C-box competitor]”, the binding result in data set [2] was “binds”.
